Test results from article PMC11360757.
Results are given in words; binding and its absence hold for the method and conditions named. In cells and extracts the contact can be indirect. These calls come from enrichment with a bait or labelling near it, and not all partners need be listed.

Protein sequences, listed by entry. Tags and fused reporters are not part of them.
UniProt O43707: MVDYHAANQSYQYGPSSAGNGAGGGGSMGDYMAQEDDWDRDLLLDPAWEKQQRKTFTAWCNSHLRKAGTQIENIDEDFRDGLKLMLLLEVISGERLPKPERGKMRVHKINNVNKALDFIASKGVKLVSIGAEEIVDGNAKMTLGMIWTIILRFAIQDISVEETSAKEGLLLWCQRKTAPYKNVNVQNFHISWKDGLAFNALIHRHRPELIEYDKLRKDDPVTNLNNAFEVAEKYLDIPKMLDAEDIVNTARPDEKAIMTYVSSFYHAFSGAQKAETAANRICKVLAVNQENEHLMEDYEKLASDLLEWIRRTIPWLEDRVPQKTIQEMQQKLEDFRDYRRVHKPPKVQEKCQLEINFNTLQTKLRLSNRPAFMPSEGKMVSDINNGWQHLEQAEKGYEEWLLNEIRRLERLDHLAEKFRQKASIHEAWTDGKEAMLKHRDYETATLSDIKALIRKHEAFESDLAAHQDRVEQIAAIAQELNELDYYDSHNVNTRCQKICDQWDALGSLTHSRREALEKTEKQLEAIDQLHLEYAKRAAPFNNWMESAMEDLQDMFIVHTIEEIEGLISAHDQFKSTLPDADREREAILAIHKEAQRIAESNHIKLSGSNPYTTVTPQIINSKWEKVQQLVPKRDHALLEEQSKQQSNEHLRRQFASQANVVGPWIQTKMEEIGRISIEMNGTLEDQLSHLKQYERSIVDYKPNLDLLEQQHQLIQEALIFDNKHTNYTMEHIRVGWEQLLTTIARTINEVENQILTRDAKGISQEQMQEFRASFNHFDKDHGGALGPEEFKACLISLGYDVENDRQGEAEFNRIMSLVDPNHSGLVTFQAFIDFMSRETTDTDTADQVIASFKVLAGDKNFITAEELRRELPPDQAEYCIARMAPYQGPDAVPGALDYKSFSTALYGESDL
UniProt P48643: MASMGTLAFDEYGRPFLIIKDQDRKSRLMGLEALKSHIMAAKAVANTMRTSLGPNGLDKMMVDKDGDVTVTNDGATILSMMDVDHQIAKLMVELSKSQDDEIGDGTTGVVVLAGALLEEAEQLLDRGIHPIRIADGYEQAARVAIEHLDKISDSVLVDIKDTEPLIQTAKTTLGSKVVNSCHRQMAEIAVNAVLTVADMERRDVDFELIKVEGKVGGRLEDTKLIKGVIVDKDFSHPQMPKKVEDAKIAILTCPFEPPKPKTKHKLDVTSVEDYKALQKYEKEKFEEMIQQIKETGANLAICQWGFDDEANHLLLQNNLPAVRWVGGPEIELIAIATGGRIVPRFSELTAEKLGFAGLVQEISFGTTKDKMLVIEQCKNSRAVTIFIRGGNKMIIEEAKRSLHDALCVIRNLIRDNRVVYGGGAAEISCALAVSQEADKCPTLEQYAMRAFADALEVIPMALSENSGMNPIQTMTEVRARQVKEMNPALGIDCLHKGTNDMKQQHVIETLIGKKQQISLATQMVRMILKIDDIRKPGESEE

Biological target: T1, chaperonin-containing TCP1 subunit 3 (CCT3) (human (endogenous in 97 L and LM3)) (UniProt P49368)
T1 sequence: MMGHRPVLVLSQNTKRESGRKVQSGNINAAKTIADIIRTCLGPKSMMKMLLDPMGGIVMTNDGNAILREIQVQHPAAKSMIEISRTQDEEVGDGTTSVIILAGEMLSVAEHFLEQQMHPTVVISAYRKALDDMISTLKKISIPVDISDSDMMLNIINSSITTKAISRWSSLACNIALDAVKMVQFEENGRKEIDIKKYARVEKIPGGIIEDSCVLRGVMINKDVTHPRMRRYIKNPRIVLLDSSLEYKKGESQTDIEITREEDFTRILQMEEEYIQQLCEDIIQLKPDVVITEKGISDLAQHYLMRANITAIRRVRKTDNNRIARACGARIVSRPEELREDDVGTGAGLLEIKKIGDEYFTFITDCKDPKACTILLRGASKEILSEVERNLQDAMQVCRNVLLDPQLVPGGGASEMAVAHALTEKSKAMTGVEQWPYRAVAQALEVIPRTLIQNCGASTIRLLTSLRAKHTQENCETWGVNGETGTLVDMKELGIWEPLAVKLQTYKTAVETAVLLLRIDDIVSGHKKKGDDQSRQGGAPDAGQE
Experiment: affinity purification with mass spectrometry; immunoprecipitation of endogenous CCT3 with anti-CCT3 antibody against IgG isotype control, precipitate analysed by mass spectrometry; with and without Sorafenib treatment of the cells

Row | binding | Substance
1 | binds | ACTN4 (from UniProt O43707 1-911)
2 | binds | CCT5 (from UniProt P48643 1-541)
